Reference: PMC4849473
No constants are given. Whether binding was seen depends on the method and setting. Tags and fused reporters may be left off the sequences shown.

Target: [Lys(Me3)9]-Histone H3 (1–21)-GGK(Biotin) peptide (UniProt P68431)
Assay: pull-down; biotinylated H3K9me3 peptide (1 μg) on streptavidin agarose resin, about 5 μg Chp1CD in 20 μl, 1 h on ice; 20 mM HEPES pH 7.5, 75 mM KCl, 0.5 mM DTT; SDS-PAGE, quantified with ImageJ, normalized to wt; both purified

B1: His6-SUMO-Chp1CD W44A (domain or fragment, UniProt Q10103 15-75)
chain: GETDADVYEVEDILADRVNKNGINEYYIKAAGYDWYDNTWEPEQNLFGAEKVLKKWKKRKK
With B1 the binding was “no binding (tested: approximately 5 μg of Chp1CD in 20 μl)”.
